The campaign covered roughly 400,000 compounds. About 3,700 (0.93%) were called active. The shares of active, inactive and inconclusive entries below differ from those in the screen. The call rests on the fitted dose curve; in most records, active means well fitted inhibition curve with a large enough effect; inconclusive means small, poorly fitted or top-dose-only effect, or another doubt; inactive means no such curve, though single readings can be large or run the other way. Potencies beside an inconclusive call are fits to weak or partial responses and may not hold up.
These compounds were tested against Vitamin D3 receptor (Homo sapiens) (UniProt P11473) (assay: Inhibitors of the vitamin D receptor (VDR): qHTS). Conditions: VDR-SRC2-3 peptide fluorescence polarization, 2 h; max response, negative = inhibition: stronger effect = lower value.
Method in brief: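 After 23 nl compound addition and a short centrifugation, plates sat for 2 hours at ambient temperature; polarization of fluorescence then indicated loss of VDR binding to peptide SRC2-3.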
On the % scale 0 is the no-effect control and ±100 the full control effect; potency means the concentration at half of the fitted maximal effect.

Amino acid sequences for entries named in this document (tags omitted). A change or cut given only in a name is not applied to a line headed by its entry.
UniProt P11473: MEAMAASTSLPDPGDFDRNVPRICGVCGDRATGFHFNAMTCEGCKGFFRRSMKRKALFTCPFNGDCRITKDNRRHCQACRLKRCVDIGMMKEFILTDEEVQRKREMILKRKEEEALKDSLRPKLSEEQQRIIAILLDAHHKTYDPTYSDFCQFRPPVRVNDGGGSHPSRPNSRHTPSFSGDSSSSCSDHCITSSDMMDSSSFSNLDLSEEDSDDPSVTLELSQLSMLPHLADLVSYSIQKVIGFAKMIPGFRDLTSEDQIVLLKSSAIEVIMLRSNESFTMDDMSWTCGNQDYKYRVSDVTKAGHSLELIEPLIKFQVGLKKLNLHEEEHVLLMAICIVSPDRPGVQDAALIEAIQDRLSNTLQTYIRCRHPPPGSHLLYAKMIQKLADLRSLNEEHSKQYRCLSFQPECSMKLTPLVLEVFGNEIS

Row | SMILES | Potency | max response, negative = inhibition
1 | CN(C)C(=O)c1ccc(-c2cncnc2Nc2ccccc2)cc1 | inconclusive: 50.1 µM [inhibitor, partial curve, poor fit] | 
2 | Cc1ccc(S(=O)(=O)NCCCn2ccnc2)cc1C(=O)NC(C)C | inconclusive: 0.708 µM [inhibitor, full curve, poor fit] | 
3 | Cc1ncc(S(=O)(=O)c2ccc(Cl)cc2)c(N)n1 | inconclusive: 89.1 µM [inhibitor, single point] | 
4 | Oc1c(Cl)cc(Cl)c(Cl)c1Cc1c(O)c(Cl)cc(Cl)c1Cl | active: 44.7 µM | 
5 | O=C(Cc1cc(=O)oc2cc(O)ccc12)NC(Cc1ccc(Cl)cc1)C(=O)O (stereo not given) | inconclusive: 28.2 µM [inhibitor, single point] | 
6 | CC12CN3CC(C)(CN(C1)C3c1ccc3ccccc3c1O)C2=O (stereo not given) |  | inactive: -2.77%
7 | CCCc1c(-c2ccc(O)cc2)nn(-c2ccc(O)cc2)c1-c1ccc(O)cc1 | inconclusive: 89.1 µM [inhibitor, single point] | 
8 | O=C(NCc1cccnc1)/C(=C\c1ccc(-c2cccc(Cl)c2)o1)S(=O)(=O)c1ccccc1 | active: 44.7 µM | 
9 | C#CCOCCOCCOCCNc1nc(N2CCN(C(=O)[C@H]([C@@H](C)CC)n3cc(CCC(=O)O)nn3)CC2)nc(N2CCN(C(=O)[C@H](CCCCN)n3cc(CC(C)O)nn3)CC2)n1 (stereo not given in full) |  | inactive: -28.9%
10 | CCOC(=O)C(C(=O)OCC)C(Nc1ccc(Br)cc1)c1ccccc1 (stereo not given) | active: 79.4 µM | 
11 | CCOc1ccc(CCNC(=O)c2ccc(CS(=O)Cc3cccc(Cl)c3)o2)cc1 (stereo not given) | inconclusive: 17.8 µM [inhibitor, partial curve] | 
12 | CCCCC[C@H](O)/C=C/C1=C(CCCCCCC(=O)O)C(=O)CC1 | inconclusive: 79.4 µM [inhibitor, partial curve, poor fit] | 
13 | O=C(O)C(S)[C@@H](S)C(=O)O (stereo not given in full) | active: 3.98 µM | 
14 | FC(F)(F)c1cccc(Oc2nc(-c3ccccc3)nnc2C(F)(F)F)c1 | inconclusive: 35.5 µM [inhibitor, partial curve] | 
15 | CC(=O)c1cccc(N(C(=O)CNC(=O)c2ccco2)C(C(=O)NCc2ccco2)c2ccccc2)c1 (stereo not given) |  | inactive: -0.37%
16 | Cc1ccc(/C=C/C(=O)N2CCN(S(=O)(=O)c3ccc(C)c(C)c3)CC2)o1 | inconclusive: 70.8 µM [inhibitor, partial curve, poor fit] | 
17 | COC(=O)C1C(=O)C(C(=O)/C=C/c2ccco2)C(=O)CC1(C)C (stereo not given) | active: 44.7 µM | 
18 | O=C(O)c1cc2sccc2s1 | inconclusive: 89.1 µM [inhibitor, single point] | 
19 | CCOC(=O)C(C(=O)OCC)C(Nc1ccccc1)c1ccccc1 (stereo not given) | inconclusive: 39.8 µM [inhibitor, partial curve, poor fit] | 
20 | O=C(O)CC/C(=C\c1ccc(N2CCCC2)c([N+](=O)[O-])c1)c1nc2ccccc2s1 | inconclusive: 89.1 µM [inhibitor, single point] | 

Row | SMILES | Potency | max response, negative = inhibition
21 | CC1CCC(C(C)C)C(OC(=O)C[n+]2cccc(C(N)=O)c2)C1 (stereo not given) | inconclusive: 1.78 µM [inhibitor, partial curve, poor fit] | 
22 | COc1ccc(-c2oc(=O)c3cc(OC)c(OC)cc3c2-c2ccc3c(c2)OCO3)cc1 |  | inactive: -8.72%
23 | COc1cccc(OC)c1C(=O)NCCSC1CCCCC1 | inconclusive: 28.2 µM [inhibitor, single point] | 
24 | COc1ccccc1C(=O)N/C(=C/c1cccc([N+](=O)[O-])c1)C(=O)Nc1cccc(C(=O)O)c1 | inconclusive: 63.1 µM [inhibitor, partial curve, poor fit] | 
25 | O=[N+]([O-])c1ccc(CN2CCOCCOCCOCC2)cc1 | inconclusive: 79.4 µM [inhibitor, single point] | 
26 | CCOC(=O)C1=C(C)OC2(O)c3ccccc3C(=O)C12O (stereo not given) | active: 5.01 µM | 
27 | Cc1cc(N2C(=O)C(O)=C(C(=O)c3ccc(C)o3)C2c2cccc(Oc3ccccc3)c2)no1 (stereo not given) | inconclusive: 50.1 µM [inhibitor, partial curve, poor fit] | 
28 | CCCS(=O)(=O)c1c(S(=O)(=O)CCC)c2c3ccccc3ccn2c1C(=O)OC |  | inactive: 6.86%
29 | CCOC(=O)c1cnc2ccc(C(=O)OC)cc2c1Nc1cccc(C(=O)O)c1 |  | inactive: -1.49%
30 | O=C(COC(=O)C1CC(=O)N(Cc2ccco2)C1)c1ccc(OC(=O)c2ccco2)cc1 (stereo not given) | inconclusive: 89.1 µM [inhibitor, single point] | 
31 | CCCOc1ccc(-c2nc(=S)[nH][nH]2)cc1 | active: 89.1 µM | 
32 | Cc1cc(C)c2[nH]c(=O)c(CN(CC3CCCO3)C(=S)NCc3ccco3)cc2c1 (stereo not given) | inconclusive: 89.1 µM [inhibitor, single point] | 
33 | CCOc1cc(N2CCOCC2)c(OCC)cc1NC(=O)c1ccc(OCc2c(C)noc2C)c(OC)c1 |  | inactive: -23.4%
34 | CSC1=NC(C)(C)C=C(/C=C/c2ccc(Cl)cc2Cl)N1 | inconclusive: 79.4 µM [inhibitor, partial curve, poor fit] | 
35 | CC(=O)N1CC(=O)N=C1SCC(=O)Nc1nc(C)c(-c2ccccc2)s1 | inconclusive: 70.8 µM [inhibitor, single point] | 
36 | O=C(/C=C/c1ccc2c(c1)OCO2)c1ccc(F)cc1 | inconclusive: 79.4 µM [inhibitor, partial curve, poor fit] | 
37 | c1ccc(-c2cccc(N3CC[C@@]4(CCCNC4)C3)c2)cc1 | inconclusive: 50.1 µM [inhibitor, partial curve] | 
38 | Cc1ccc(-c2nnc3c4ccccc4c(C)nn23)cc1NC(=O)c1ccccc1Cl |  | inactive: -1.18%
39 | O=C(O)CCN1C(=O)C2C3CC(C2C1=O)C1C(c2ccccc2)c2sc(=O)n(-c4ccccc4)c2SC31 (stereo not given) | inconclusive: 89.1 µM [inhibitor, single point] | 
40 | CCN1C/C(=C\c2cc(OC)c(OC)c(OC)c2)C2=NN(c3ccccc3)C(c3cc(OC)c(OC)c(OC)c3)C2C1 (stereo not given) | inconclusive: 89.1 µM [inhibitor, single point] | 

2 records picked at random from the list so far, as already listed:
Row | SMILES | Potency | max response, negative = inhibition
27 | Cc1cc(N2C(=O)C(O)=C(C(=O)c3ccc(C)o3)C2c2cccc(Oc3ccccc3)c2)no1 (stereo not given) | inconclusive: 50.1 µM [inhibitor, partial curve, poor fit] | 
25 | O=[N+]([O-])c1ccc(CN2CCOCCOCCOCC2)cc1 | inconclusive: 79.4 µM [inhibitor, single point] | 

From PubChem BioAssay AID504847 (National Center for Advancing Translational Sciences (NCATS), 2011)
